{
  "source": "patent US20230102129A1",
  "target": "sSema4D protein (Mus musculus (Mouse))",
  "assay": "CD spectroscopy of 20 uM nanoparticles before and after addition of sSema4D",
  "note": "No constants are given. Whether binding was seen depends on the method and setting. Binding calls can cover weak binding; strength is not graded here.",
  "data": [
    {"binder": "FFVLKKQKRPRH (X = C16 carbon chain (X being C16), as for FG; position shown only in a drawing)", "note": "[nano small peptide FH]", "values": [
      {"measurement": "binding", "value": "binds"}
    ]}
  ]
}
